In patent publication US20240010720A1:
Residue numbers refer to the chain shown, from its start. Results are given in words; binding and its absence hold for the method and conditions named. Some entries that bind do so weakly or less than the wild type.

T1: IGSF11-hFc (human) (UniProt Q5DX21)
T1 sequence: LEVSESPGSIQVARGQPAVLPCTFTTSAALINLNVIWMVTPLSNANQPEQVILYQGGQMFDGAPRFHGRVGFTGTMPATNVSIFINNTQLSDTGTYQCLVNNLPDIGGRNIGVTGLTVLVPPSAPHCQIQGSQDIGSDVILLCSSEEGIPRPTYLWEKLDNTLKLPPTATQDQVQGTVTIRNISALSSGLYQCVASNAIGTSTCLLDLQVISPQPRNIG

B1: A-006 (IgG1 format) (antibody, V domains shown)
VH: EVQLVESGGGLIQPGGSLRLSCAASGFTVSSNYMSWVRQAPGKGLEWVSVIYSGGSTYYADSVKGRFTISRDNSKNTLYLQMNSLRAEDTAVYYCARGNPYYYGDLQVNFDYWGQGTLVTVSS
VL: QAVVTQEPSLTVSPGGTVTLTCASSTGAVTSGYYPNWFQQKPGQAPRPLIYSTSNKHSWTPARFSGSLLGGKAALTLSGVQPDDEAEYYCLLYYGGDWVFGGGTKLTVL
B2: B-002 (chain-swapped IgG1) (antibody, V domains shown)
VH: B1 VH
VL: B1 VL with P48A, D83E, D97A
B3: B-004 (chain-swapped IgG1) (antibody, V domains shown)
VH: B1 VH with V5L, A24V
VL: B1 VL
B4: B-007 (chain-swapped IgG1) (antibody, V domains shown)
VH: B1 VH
VL: B1 VL with G32A, P48A, D83E, E87D, D97A
B5: B-006 (chain-swapped IgG1) (antibody, V domains shown)
VH: B1 VH
VL: B1 VL with G16E, K41R, P48A, H57D, D83E, D97A
B6: B-008 (chain-swapped IgG1) (antibody, V domains shown)
VH: B1 VH
VL: B1 VL with L20P, A23G, Y33N, Y34L, P48A, F64I, D83E, D97A
B7: B-001 (chain-swapped IgG1) (antibody, V domains shown)
VH: B1 VH with V5L, A24V
VL: B1 VL with G32A, P48A, D83E, E87D, D97A
B8: B-003 (chain-swapped IgG1) (antibody, V domains shown)
VH: B1 VH with V5L, A24V
VL: B1 VL with G16E, K41R, P48A, H57D, D83E, D97A
B9: B-005 (chain-swapped IgG1) (antibody, V domains shown)
VH: B1 VH with V5L, A24V
VL: B1 VL with L20P, A23G, Y33N, Y34L, P48A, F64I, D83E, D97A
B10: A-013 (IgG1 format) (antibody, V domains shown)
VH: B1 VH
VL: B1 VL with G32A, P48A, D83E, E87D, D97A
B11: A-012 (IgG1 format) (antibody, V domains shown)
VH: B1 VH with V5L, A24V
VL: B1 VL with P48A, D83E, D97A
B12: A-022 (IgG1 format) (antibody, V domains shown)
VH: EVQLLESGPGLVKPSQTLSLTCTVSGGSISSGGYYWSWIRQHPGKGLEWIGYIYYSGSTYYNPSLKSRVTISVDTSKNQFSLKLSSVTAADTAVYYCARASRSTDYYFDYWGQGTLVTVSS
VL: QPGLTQPPSMSYGLGQTATLTCTGNRNNIGDQGAAWLQQHQGHPPKLLSYRNNNGPSGISERLSASRSGNTASLTISGLQPEDEADYYCSAWDSSLRAWVFGGGTKLTVL
B13: A-035 (IgG1 format) (antibody, V domains shown)
VH: QVQLVQSGAEVKKPGASVKVSCKASGYTFTGYYMHWVRQAPGQGLEWMGWINPNSGNTGYAQKFQGRVTMTRNTSISTAYMELSSLRSEDTAVYYCARGRLERGYWYFDLWGRGTLVTVSS
VL: NFMLTQPHSVSESPGRTVTISCTRSSGSITSNYVQWYQQRPGSAPTILIYEDKERPSEVPDRFSGSIDISSNSASLTISGLKTEDEADYYCQSYGGTSQGVLFGGGTKVTVL

Target: recombinant human IGSF11 (VSIG3) extracellular domain (ECD) (human) (UniProt Q5DX21)
Assay: BLI competition: biotinylated IGSF11 on streptavidin biosensor, ABP bound first, then VSIR multimer as competitor; traces Max (maximum VSIR binding), BL (baseline), SB (VSIR simultaneous binding) [Cont.) B]

Row | Binder | binding
1 | B1 | binds

Target: IGSF11 ECD fused to murine-Fc (human; mouse) (UniProt Q5DX21)
Assay: BLI, IGSF11-mFc on sensor

Row | Binder | binding
2 | B1 | binds

Target: IGSF11 ECD fused to murine-Fc (human; mouse) (UniProt Q5DX21)
Assay: BLI (Octet): IGSF11 murine-Fc fusion captured on the biosensor, IgG1-format ABP in solution at three concentrations (not given); x time (s), y response (nm) per legend [Cont.) D]

Row | Binder | binding
3 | B1 | binds

Target: human IGSF11 (VSIG3) on cells (human) (UniProt Q5DX21)
Assay: FACS, COLO-741 cells

Row | Binder | binding
4 | B1 | binds

Target: IGSF11 ECD fused to murine-Fc (human; mouse) (UniProt Q5DX21)
Assay: ELISA: IgG titrated on coated murine-Fc fusion of IGSF11 ECD; x axis IgG nM, y axis absorption per legend

Row | Binder | binding
5 | B1 | binds

Target: human IGSF11 (VSIG3) on cells (human) (UniProt Q5DX21)
Assay: flow cytometry: assay supernatants with A-006-like ABP (20 ug/ml) stained on fresh MDA-MB-231-luc/IGSF11 cells, anti-human IgG Fc Alexa Fluor 647

Row | Binder | binding
6 | B1 | binds

Target: human IGSF11 (VSIG3) on cells (human) (UniProt Q5DX21)
Assay: flow cytometry on MDA-MB-231-luc cells transduced with IGSF11 lentiviral vector (A) or mock transduced (B); A-006 followed by anti-human IgG-AF647

Row | Binder | binding
7 | B1 | binds

Target: His-tagged extracellular domain (ECD) of human IGSF11 (VSIG3) (human) (UniProt Q5DX21)
Assay: ELISA: IgG1-format antibody titrated on coated His-tagged IGSF11; x axis nM IgG, y axis absorbance per legend

Row | Binder | binding
8 | B1 | binds
9 | B2 | binds
10 | B3 | binds
11 | B4 | binds
12 | B5 | binds
13 | B6 | binds
14 | B7 | binds
15 | B8 | binds
16 | B9 | binds

Target: T1, IGSF11-hFc (human)
Assay: ELISA EC50 grade, IgG1

Row | Binder | binding
17 | B10 | binds
18 | B11 | binds
19 | B12 | binds
20 | B13 | binds

Target: His-tagged extracellular domain (ECD) of human IGSF11 (VSIG3) (human) (UniProt Q5DX21)
Assay: ELISA EC50 grade, IgG1

Row | Binder | binding
21 | B2 | binds
22 | B3 | binds
23 | B4 | binds
24 | B5 | binds
25 | B6 | binds
26 | B7 | binds
27 | B8 | binds
28 | B9 | binds

Target: human IGSF11 (VSIG3) on cells (human) (UniProt Q5DX21)
Assay: FACS, MDA-MB-231-luc cells transduced with IGSF11

Row | Binder | binding
29 | B1 | binds

Target: His-tagged extracellular domain (ECD) of human IGSF11 (VSIG3) (human) (UniProt Q5DX21)
Assay: ELISA, IgG1

Row | Binder | binding
30 | B2 | binds
31 | B3 | binds
32 | B4 | binds
33 | B5 | binds
34 | B6 | binds
35 | B7 | binds
36 | B8 | binds
37 | B9 | binds

Target: human IGSF11 (VSIG3) on cells (human) (UniProt Q5DX21)
Assay: FACS staining of COLO-741 cells, which naturally express IGSF11

Row | Binder | binding
38 | B1 | binds

Target: His-tagged extracellular domain (ECD) of human IGSF11 (VSIG3) (human) (UniProt Q5DX21)
Assay: blocking ELISA: IgG pre-incubated with His-tagged IGSF11 ECD, complexes added to immobilised VSIR-Fc; y axis % remaining IGSF11 binding, x axis IgG nM per legend

Row | Binder | binding
39 | B1 | binds

Target: His-tagged extracellular domain (ECD) of human IGSF11 (VSIG3) (human) (UniProt Q5DX21)
Assay: blocking ELISA: antibody pre-incubated with His-tagged IGSF11 ECD, complexes added to immobilised VSIR-Fc; y axis % remaining IGSF11 binding to VSIR, x axis nM IgG per legend

Row | Binder | binding
40 | B1 | binds
41 | B2 | binds
42 | B3 | binds
43 | B4 | binds
44 | B5 | binds
45 | B6 | binds
46 | B7 | binds
47 | B8 | binds
48 | B9 | binds

Target: human IGSF11 (VSIG3) on cells (human) (UniProt Q5DX21)
Assay: FACS, MDA-MB-231-luc/IGSF11 cells, competitor soluble IGSF11-ECD-His 1.56-25 ug/mL

Row | Binder | binding
49 | B1 | binds
